These are yes or no findings as the source states them, for the method shown. Some binding calls cover weakened binding; strength is not graded here.
Target: EST6-1 (esterase 6 variant with greatest soluble expression after six rounds of directed evolution) (Drosophila melanogaster) (UniProt P08171)
Assay: SEC; Hiload 26/600 Superdex 200 pg column, 20 mM Hepes pH 7.5, 50 mM NaCl; self-association of EST6-1 (monomer and dimer peaks); both purified

binding: binds weakly
B1: EST6-1 (esterase 6 variant with greatest soluble expression after six rounds of directed evolution) (enzyme, UniProt P08171 22-544)
chain: SDTDDPLLVQLPQGVLRGRDNGSYYSYESIPYAEPPTGDLRFEAPEPYKQKWSDIFDATKTPVACLQWDQFTPGANKLVGEEDCLTVSVYKPKNSKRNSFPVVAHIHGGAFMFGAAWQNGHENVMREGKFILVKISYRLGPLGFLSTGDRDLPGNYGLKDQRLALKWIKQNIASFGGEPQNVLLVGHSAGGASVHLQMLREDFGQLAKAAFSFSGNALDPWVIQKGARERAFELGRSVGCESAEDSASLKKCLKSKPASELVTAVRKFLIFSYVPFAPFSPVLEPSDAPGAFITQDPRDVIKSGKFGQVPWAVSYVTEDGGYNAALLLKERKSGVVIDDLNERWLELAPYLLFYRDTKTKKDMDDYSRKIKQEYIGNQRFDIGSYSELQRLFTDILFKNGTQESLDLHRKYGKSPVYAYVYDNPAEKGIAQVLANRTDYDFGTVHGDDYSLIFENSVRDVEMRPDEQIISRNFINMLADFASSDDGSLKYGECDFKDNVGSEKFQLLAIYTDGCQNRQHVEFP

Source: PMC5385555, “Molecular basis for the behavioral effects of the odorant degrading enzyme Esterase 6 in Drosophila” (Scientific Reports, 2017)
